Assay results as given in US20090209536A1, “AMINOQUINAZOLINE CANNABINOID RECEPTOR MODULATORS FOR TREATMENT OF DISEASE” (KALYPSYS, INC., priority 2007, published 2009).
For at least one compound, name, drawing or mass did not settle the structure. Some entries repeat one wording, which the source may state once for all of them.

By UniProt entry, the sequences of proteins in these tests, tags left out.
UniProt P21554, whole entry: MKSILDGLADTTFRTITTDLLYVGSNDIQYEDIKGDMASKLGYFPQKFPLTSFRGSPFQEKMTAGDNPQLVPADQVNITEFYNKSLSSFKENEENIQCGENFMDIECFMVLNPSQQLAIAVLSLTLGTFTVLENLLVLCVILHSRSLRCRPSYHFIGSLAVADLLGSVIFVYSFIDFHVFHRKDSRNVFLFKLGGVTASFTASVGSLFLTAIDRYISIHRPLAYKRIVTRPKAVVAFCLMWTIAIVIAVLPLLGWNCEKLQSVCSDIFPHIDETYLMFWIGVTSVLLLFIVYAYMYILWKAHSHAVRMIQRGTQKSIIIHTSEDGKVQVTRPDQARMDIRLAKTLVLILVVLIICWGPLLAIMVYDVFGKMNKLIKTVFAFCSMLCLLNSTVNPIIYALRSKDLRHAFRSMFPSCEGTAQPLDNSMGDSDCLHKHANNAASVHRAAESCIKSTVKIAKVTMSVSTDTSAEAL

Target: T1, human cannabinoid receptor type 1 (Homo sapiens, UniProt P21554)
T1 construct: purchased Perkin Elmer RBHCB1M; host or cells: HEK 293 EBNA cells
Assay: Human CB1 Radioligand Binding Assay (basis of selectivity, CB2 vs. CB1)
Settings: CB1: HEK 293 EBNA cells expressing human CB1; CB2: CHO CB2 membranes
Description: 2. Human CB1 Radioligand Binding Assay
The incubation buffer was composed of 50 mM Tris-HCl pH 7.4, 2.5 mM EDTA, 5 mM MgCl2, 5.0 mg/ml fatty acid free BSA and the wash buffer was composed of 50 mM Tris-HCl pH 7.4, 2.5 mM EDTA, 5 mM MgCl2, 0.5 mg/ml fatty acid free BSA.

| SMILES | Selectivity, CB2 vs. CB1 |
| --- | --- |
| CN(Cc1ccccc1)c1nc(C2CCCCC2)nc2ccccc12 [Example 39, N-Benzyl-2-cyclohexyl-N-methylquinazolin-4-amine] | − (− indicates ≦ 10−fold) |
| CC(C)(C)c1ccc(-c2nc(NC3CCCCC3)c3ccccc3n2)cc1 [Example 129, 2-(4-tert-Butylphenyl)quinazolin-4-yl cyclohexylamine] | − (− indicates ≦ 10−fold) |
| c1ccc2c(N3CCCC3)nc(C3CCCC3)nc2c1 [Example 135, 2-Cyclopentyl-4-pyrrolidin-1-ylquinazoline] | − (− indicates ≦ 10−fold) |
| CC(C)(C)c1ccc(Nc2nc(-c3ccc(OC(F)(F)F)cc3)nc3ccccc23)cc1 [Example 143, (4-tert-Butylphenyl)-[2-(4-trifluoromethoxyphenyl)-quinazolin-4-yl]amine] | − (− indicates ≦ 10−fold) |
| CN1CCN(c2nc(-c3ccccc3Cl)nc3ccc(Br)cc23)CC1 [Example 183, 6-Bromo-2-(2-chlorophenyl)-4-(4-methylpiperazin-1-yl)quinazoline] | − (− indicates ≦ 10−fold) |
| CCOC(=O)N1CCN(c2nc(-c3ccc(Cl)cc3)nc3ccc(Cl)cc23)CC1 [Example 210, Ethyl 4-(6-chloro-2-(4-chlorophenyl)quinazolin-4-yl)piperazine-1-carboxylate] | − (− indicates ≦ 10−fold) |
| COC(CNc1nc(-c2ccccc2Cl)nc2ccccc12)OC [Example 230, 2-(2-Chlorophenyl)-N-(2,2-dimethoxyethyl)quinazolin-4-amine] | − (− indicates ≦ 10−fold) |
| O=S(=O)(NCc1nc(N2CCOCC2)c2ccccc2n1)c1ccccc1Br [Example 292, 2-Bromo-N-((4-morpholinoquinazolin-2-yl)methyl)benzenesulfonamide] | + (+ indicates > 10−fold) |
| O=S(=O)(NCc1nc(N2CCOCC2)c2ccccc2n1)c1ccc(Cl)cc1 [Example 293, 4-Chloro-N-((4-morpholinoquinazolin-2-yl)methyl)benzenesulfonamide] | − (− indicates ≦ 10−fold) |
| Cc1c(Cl)cccc1S(=O)(=O)NCc1nc(N2CCOCC2)c2ccccc2n1 [Example 295, 3-Chloro-2-methyl-N-((4-morpholinoquinazolin-2-yl)methyl)benzenesulfonamide] | − (− indicates ≦ 10−fold) |
| CCOC(=O)N1CCN(c2nc(-c3ccccc3Cl)nc3cc(C(=O)N(CC)CC)ccc23)CC1 [Example 319, Ethyl 4-(2-(2-chlorophenyl)-7-(diethylcarbamoyl)quinazolin-4-yl)piperazine-1-carboxylate] | − (− indicates ≦ 10−fold) |
| COC(=O)c1ccc2nc(-c3ccccc3Cl)nc(Nc3ccccc3C)c2c1 [Example 329, Methyl 2-(2-chlorophenyl)-4-(o-tolylamino)quinazoline-6-carboxylate] | + (+ indicates > 10−fold) |
